Data as given in PubChem BioAssay AID1259254 (NCATS, 2017).
This is a random part of about 59,000 deposited reagents. About 1,550 of them (2.6%) were called active. 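G2 share is only a proxy for re-replication; each gene was hit by three separate siRNAs, and active genes were retested.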 A number with no mark means an inactive call. Reagents against one gene are numbered here. Further read-outs or replicates are left out here. Not given: the amount of reagent.

Test: 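Gene knock-downs that lead to re-replication, shown by excess G2 DNA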 (primary screen)
Cells: human HCT116 colorectal cancer cells
Reagents: single siRNA against human genes
Time to read-out: 3 days
Measured: 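Imaged Hoechst DNA stain sorts each cell into a cycle phase by DNA amount; per plate, G2 fraction set to 0% for non-targeting and 100% for GMNN siRNA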
Direction: G2 robust z-score: higher = more G2 cells, more excess DNA replication
Call rule: 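Active siRNAs have a G2 robust z of 5 or more median absolute deviations over the median, which in these data means about 38% or higher of GMNN control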

G2 robust z-score, by gene and reagent
VDAC2P5: #1 1.64; #2 -0.313; #3 -0.747
PRXL2A: #1 -0.514; #2 0.0742; #3 -0.458
GAS7: #1 -0.608; #2 -0.276; #3 0.233
SULT2B1: #1 -1.29; #2 1.47; #3 -0.718
RPH3A: #1 -0.148; #2 1.48; #3 -0.123
ATP1B3: #1 -0.321; #2 -0.783; #3 -0.527
CRP: #1 -0.155; #2 -0.384; #3 1.2
MRPL21: #1 -1.22; #2 -0.318; #3 -0.682
C1orf162: #1 2.22; #2 0.0338; #3 4.08
BAIAP2L1: #1 0.0887; #2 1.57; #3 -0.769
SEPSECS: #1 1.32; #2 -0.174; #3 -0.78
RNF121: #1 3.45; #2 0.589; #3 0.657
CCDC28B: #1 0.766; #2 -1.12; #3 3.94
EIF2S2P4: #1 -0.0956; #2 1.42; #3 -0.532
TRAPPC12: #1 -1.48; #2 0.459; #3 -0.53
QTRT2: #1 1.1; #2 -1.31; #3 0.0656
CD84: #1 1.03; #2 0.438; #3 1.09
ZNF564: #1 -0.284; #2 1.26; #3 1.63
OCIAD2: #1 0.927; #2 -0.335; #3 2.08
DDI2: #1 0.684; #2 -0.415; #3 -0.189; #4 -1.05; #5 0.86; #6 3.98
ATP6AP1L: #1 -0.0367; #2 -0.161; #3 1.09
HES5: #1 1.44; #2 0.403; #3 2.54

5 entries already listed, ordered by “G2 robust z-score”, lowest first.
gene	siRNA no.	G2 robust z-score
SULT2B1	1	-1.29
GAS7	1	-0.608
PRXL2A	3	-0.458
GAS7	2	-0.276
GAS7	3	0.233
